The test system of data set [1] is His-BnaC04.bZIP16 (Brassica napus). Nature of the data set: EMSA. Conditions: 10x and 50x unlabelled probe competes; EMSA kit (Thermo) binding buffer, preincubation 10 min at room temperature, 20 fmol biotin probe, 6% native PAGE in 0.5x TBE, 2.5% glycerol; salt and pH not stated; recombinant protein; protein details: His; label: biotin. For orientation: In EMSA bound probe runs differently from free probe, usually more slowly.

Data set [2] has as its system His-BnaC04.bZIP16 phosphorylated by GST-BnaA06.SnRK2 (Brassica napus). Nature of the data set: EMSA. The following applies: after in vitro kinase assay with increasing GST-BnaA06.SnRK2, binding decreases; EMSA kit (Thermo) binding buffer, preincubation 10 min at room temperature, 20 fmol biotin probe, 6% native PAGE in 0.5x TBE, 2.5% glycerol; salt and pH not stated; recombinant protein; protein details: His; label: biotin.

The exact form of at least one protein or probe is not confirmed. For part of these data: Weaker means in comparison with the reference protein, sequence or condition of that experiment.

Take “CACCAACACGTGGATACTATTGCATGATGACGCCATTGACACATGACTCTC (double strand) [BnaA08.OLEOSIN1 promoter P1 probe]”: the values for the binding result in data set [1] and in data set [2] were “binds” and “binds more weakly”, respectively.

For “TACAAACACGTGTCTACTATAATCGTAAATGAACACGTGGCATAC (double strand) [BnaC03.PDH-E1 BETA promoter P1 probe]”, the binding result in data set [1] is “binds”.
